Each structure is given as a SMILES string. This is one part of the list. The main result of the screen is listed elsewhere. These columns were measured beside it and carry no call. Most of these compounds were active or inconclusive in the main read-out, so they are no random draw. Words in brackets tell the shape of the fitted curve; partial curves, single points and poor fits give uncertain potencies.

The assay is described as follows: qHTS Assay to Find Inhibitors of Chronic Active B-Cell Receptor Signaling. The following applies: ABC-DLBCL IkBa-CBG/CBR reporter, luminescence ratio (green luciferase fused to IkBa over red control in TMD8 lymphoma cells), 4 h. Put shortly: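 Concentration-response series (up to 46 uM) were applied to TMD8 dual-reporter cells for 4 h at 37C with doxycycline. Green/red ratio, after filter-overlap correction, defined %Activity; red signal alone was normalised to basal cells and zero luminescence.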
A general note: qHTS replaces the single test concentration by a dilution series.

Where [1] appears, read: measured here: CBR red luminescence, cell number.
Setting [2] is: measured here: IkBa-CBG green luminescence.

In general, AC50 refers to the concentration at which the activity in the assay is half-maximal. Consider `Cc1ccc(NC2CC(=O)N(Cc3ccccc3)C2=O)cc1` (stereo unspecified), for which the AC50 under setting [1] was 29.1 µM [rising, single point]. Take `O=C1CC(c2ccccc2)CC(=O)N1c1ccc(C(F)(F)F)cc1`: the AC50 under setting [1] was 23.1 µM [rising, single point].

As for `CC(=O)Nc1cccc(/C(C)=N/NC(=S)NC(C)C)c1`, the AC50 under setting [1] was 12.6 µM [rising, single point]. In the case of `O=C(CS(=O)(=O)c1ccccc1)Nc1nc(-c2ccccc2)cs1`, the AC50 under setting [1] is 1.84 µM [rising, partial curve, poor fit]. `CCOC(=O)C(C)n1ncn2cccc2c1=O` (stereo unspecified): under setting [1], the AC50 is 5.01 µM [rising, single point].

As to `COc1ccc(-c2nc(N)nc(C)c2Oc2ccccc2Br)c(O)c1`, the AC50 under setting [1] is 0.92 µM [falling, full curve]. Consider `Cc1ccc(S(=O)(=O)N2CCN(CC(=O)N/N=C\c3ccc(O)c(O)c3)CC2)cc1`, for which the AC50 under setting [1] is 35.5 µM [rising, partial curve, poor fit]. In the case of `CC(Oc1ccc(Cl)cc1Cl)c1ccnc2nc(N3CCOCC3)nn12` (stereo unspecified), the AC50 under setting [1] was 15.8 µM [falling, partial curve, poor fit]. On to `Cc1cccc(N2CCN(C(=O)c3c(C)nn(Cc4ccccc4Cl)c3C)CC2)c1C`, for which the AC50 under setting [1] is 18.4 µM [falling, partial curve, poor fit]. The same measure, in the same setting: the same measure for `COc1ccc(N2CCN(CC(=O)NCc3ccccc3)CC2)cc1`: 1.12 µM [falling, partial curve, poor fit]; for `C/C(=N/NC(=O)c1ccncc1)c1ccc(NC(=O)c2ccccc2)cc1`: 35.5 µM [falling, single point]. As for `COc1c(/C=N/Nc2ccc(C(=O)O)cc2)c(CCN(C)C(C)=O)cc2c1OCO2`, the AC50 under setting [1] is 8.91 µM [falling, partial curve, poor fit]. Same read-out and setting: the same measure for `CCNc1nc(-c2cc3ccccc3o2)cs1`: 5.17 µM [falling, full curve, poor fit].

For `COc1ccc(/C=C2\SC(N)=NC2=O)cc1Br`, the AC50 under setting [2] is 11.2 µM [falling, partial curve, poor fit]. In the case of `CCCNC(=O)C1CCN(S(=O)(=O)c2c(C)noc2/C=C\c2ccc(OC)cc2)CC1`, under setting [1], the AC50 is 2.91 µM [falling, partial curve, poor fit]. As to `CCOc1ccc(OCc2cccc(C(=O)N3CCCCCC3)c2)cc1`, under setting [1], the AC50 was 11.2 µM [falling, partial curve, poor fit]. Consider `CCCC(=O)Nc1nc2c(s1)COc1ccccc1-2`, for which the AC50 under setting [1] was 0.447 µM [falling, full curve, poor fit] and the AC50 under setting [2] was 0.708 µM [rising, full curve, poor fit]. Take `O=S(=O)(Nc1cc(Sc2cccc3cccnc23)c(O)c2ccccc12)c1ccc(F)cc1`: the AC50 is, setting by setting: under setting [1], 6.51 µM [falling, single point]; under setting [2], 4.61 µM [falling, single point]. Turning to `COc1ccccc1Nc1nc2ccccc2[nH]1`, the AC50 under setting [1] is 28.2 µM [falling, single point].

With `O=C(NC1=NCCS1)c1ccc(Cl)c(Cl)c1`, the AC50 under setting [1] is 0.631 µM [rising, full curve, poor fit]. With `CCOC(=O)CSc1nnc(-c2ccc([N+](=O)[O-])cc2)o1`, the AC50 under setting [1] is 14.1 µM [rising, single point]. The same measure, in the same setting: in the case of `Clc1ccc(-c2nc(Cc3ccccc3)no2)cc1` it was 7.31 µM [rising, partial curve, poor fit]; in that of `CCOC(=O)CCn1c(=S)n(CCC(=O)OCC)c2ccccc21`, 0.398 µM [rising, partial curve, poor fit].

For `O=C(Nc1nccs1)c1cccc(NC(=O)c2ccco2)c1`, the AC50 under setting [2] was 3.26 µM [rising, full curve, poor fit]. As to `CCCCOc1ccc(Br)cc1/C(C)=N/NC1=NCCN1`, the AC50 under setting [2] is 32.6 µM [falling, partial curve, poor fit]. Regarding `CCS(=O)(=O)Nc1cccc(-c2ccc3nnc(-c4cccnc4)n3n2)c1`, under setting [1], the AC50 is 3.55 µM [falling, full curve]. With `O=C(CN1CCN(c2ncccn2)CC1)N1CCc2ccccc21`, the AC50 under setting [1] is 2.31 µM [rising, full curve, poor fit]. Take `COc1ccc(/C=N/NC(=S)Nc2ccccc2)cc1`: the AC50 runs as follows: under setting [1], 5.62 µM [falling, single point]; under setting [2], 5.01 µM [falling, single point]. Regarding `C=C(C)C1Cc2c(C)nn(-c3cccc4cccnc34)c2C1` (stereo unspecified), the AC50 under setting [1] was 1 µM [falling, partial curve, poor fit]. For the compound `CC(=O)Nc1ccc(NC(=O)COC(=O)c2c(C)nn(-c3ccccc3)c2C)cc1`, under setting [1], the half-maximal activity concentration (AC50) is 20.6 µM [falling, single point]. Same read-out and setting: the same measure for `Cc1ccc(CC(=O)c2ccc(Cl)cc2)cc1`: 17.8 µM [rising, partial curve, poor fit]; for `O=[N+]([O-])c1ccc(NC(=S)N/C(=N/CS(=O)(=O)c2ccccc2)c2ccccc2)cc1`: 1.41 µM [rising, partial curve, poor fit]; for `Cc1cccc(NC(=S)NN2CCN(C)CC2)c1`: 32.6 µM [rising, single point]. For the compound `CSc1ccc(C(=O)NC2CCSc3ccccc32)cc1` (stereo unspecified), the AC50 under setting [1] is 0.631 µM [falling, full curve, poor fit]. `Cn1c(=O)c2ncn(CC(=O)Nc3ccc4c5c(cccc35)CC4)c2n(C)c1=O`: the half-maximal activity concentration (AC50) under setting [1] was 4.11 µM [falling, partial curve]. Regarding `COC(=O)c1ccc(Cn2nnc3c(=O)[nH]c(C4CCCN(S(=O)(=O)c5ccccc5Cl)C4)nc32)cc1` (stereo unspecified), the AC50 under setting [1] was 3.55 µM [rising, full curve, poor fit]. For `CCCC1CCC(=NNC(=S)NCCc2ccccc2)CC1` (stereo unspecified), the AC50 under setting [2] was 20 µM [falling, single point]. As for `COc1ccc(NC(=O)C(=O)c2cn(CC(=O)N3CCCC3)c3ccccc23)cc1`, the AC50 was 0.794 µM [falling, full curve, poor fit] under setting [1] and 10 µM [falling, partial curve] under setting [2].

Turning to `CC(C)(C)c1ccc(OCC(=O)NCCN2CCCC2)cc1`, the AC50 under setting [1] is 7.31 µM [rising, partial curve, poor fit]. As to `O=C(Cc1ccccc1)N/N=C/c1ccc(OC(=O)/C=C\c2ccco2)cc1`, the AC50 under setting [1] was 29.1 µM [rising, single point].

Consider `OCCNc1nc2ccccc2nc1NCCO`, for which the AC50 under setting [1] was 3.98 µM [rising, full curve, poor fit]. Turning to `Cc1cc(NC(=O)CCCC(=O)N(CC(=O)NC2CCCCC2)c2ccccc2)no1`, the half-maximal activity concentration (AC50) under setting [1] is 11.2 µM [falling, partial curve, poor fit].

Turning to `CC1(C)O[C@@H]2[C@H](O1)[C@@H](CO)O[C@H]2n1c(N2CCCCC2)nc2c(N)ncnc21`, the AC50 under setting [1] was 29.1 µM [rising, single point]. On the same count and under the same terms, in the case of `COc1ccc(CC(=O)NNc2ncnc3c2cnn3-c2ccccc2)cc1` it was 16.4 µM [falling, single point]; in that of `CCOc1cc(N2CCOCC2)c(OCC)cc1NC(=O)CN1C(=O)N(C)C2(CCCCC2)C1=O`, 10.3 µM [rising, partial curve, poor fit]; in that of `COc1n[nH]c(C(=O)Nc2cc(Cl)ccc2Cl)c1[N+](=O)[O-]`, 5.62 µM [falling, single point]. In the case of `Cc1ccc(-c2cnn(-c3cccc([N+](=O)[O-])c3)c2N)cc1`, the AC50 under setting [1] is 14.1 µM [falling, single point]. On to `COC(=O)CCn1nnc(-c2ccc(C(C)C)cc2)n1`, for which the AC50 under setting [1] is 4.11 µM [falling, partial curve].

Take `CCOc1ncccc1C(=O)Nc1ccc(C)c(S(=O)(=O)N2CCCCCC2)c1`: the AC50 under setting [1] was 0.116 µM [falling, full curve, poor fit]. In the case of `CCCCOc1nc2c(c(=O)n(C)c(=O)n2C)n1C`, under setting [1], the AC50 is 2.24 µM [falling, partial curve, poor fit]. The same measure, in the same setting: the same measure for `COc1ccc(CCNc2ncnc3c2nnn3C)cc1`: 25.1 µM [falling, partial curve, poor fit]; for `Cc1ccc(-c2csc(NC(=O)c3ccno3)n2)cc1`: 0.103 µM [rising, full curve, poor fit].

As to `Cc1sc2nc(SCC(=O)N3CCN(CCO)CC3)n(-c3ccccc3)c(=O)c2c1C`, the AC50 under setting [1] is 3.26 µM [rising, full curve, poor fit].

For `N#CCC(=O)Nc1ccc(C(=O)OCc2ccccc2Oc2ccccc2)cc1`, the AC50 under setting [1] is 0.112 µM [falling, full curve, poor fit].

Take `c1ccc(-c2nc(-c3ccco3)cs2)nc1`: under setting [1], the AC50 was 1.26 µM [rising, partial curve, poor fit]. On the same count and under the same terms, in the case of `CCOc1ccc(/C=C(\C#N)C(=O)Nc2ccccn2)cc1` it was 14.1 µM [rising, partial curve, poor fit]; in that of `COc1ccccc1C(=O)N/N=C(\C)CC(=O)Nc1ccccn1`, 0.794 µM [falling, partial curve, poor fit]; in that of `Cc1onc(-c2ccccc2Cl)c1C(=O)NC(=S)Nc1ccc(C(C)(C)C)cc1`, 2.51 µM [rising, full curve, poor fit]. With `O=C(O)C1CCN(C(=O)COc2ccc3c4c(c(=O)oc3c2)CCC4)CC1`, the AC50 under setting [1] is 11.2 µM [falling, single point].

Turning to `Cc1ccc(NC(=O)CSc2nc3ccccc3c3nc(CCc4c(C)n[nH]c4C)nn23)cc1F`, the AC50 under setting [1] is 0.00461 µM [rising, full curve, poor fit]. As for `COC(=O)N1C(=O)[C@@](c2ccc(OC)cc2)(C(C)C)N1C(=O)OC`, the AC50 under setting [1] was 2 µM [falling, full curve, poor fit].

Consider `CCn1c(COc2ccccc2)nnc1SCC(=O)CC(=O)Nc1ccccc1OC`, for which the AC50 under setting [1] is 11.2 µM [falling, partial curve].

The values above are taken from PubChem BioAssay AID493014 (National Center for Advancing Translational Sciences (NCATS), 2011).
